No constants are given. Whether binding was seen depends on the method and setting. In cells and extracts the contact can be indirect. Here binding means that the protein was enriched with, or labelled near, the bait; the list need not be complete.
Biological target: CHIQ1-GFP (CHIQUITA 1 fused to GFP), overexpressed in Arabidopsis seedlings (Arabidopsis thaliana) (UniProt O22146)
Test: affinity purification with mass spectrometry; anti-GFP antibody on protein A/G magnetic beads; total protein of 2-day-old Arabidopsis seedlings overexpressing CHIQ1-GFP, GFP-overexpressing seedlings as control; native buffer (100 mM sodium phosphate pH 8.0, 150 mM NaCl, 5 mM EDTA, 5 mM EGTA, 0.05% Triton X-100), 1.5 h at 4 °C; LC/MS-MS, at least three peptides, only proteins absent from the GFP control

binding: binds
B1: PICKLE-RELATED2 (PKR2), endogenous (protein, UniProt F4JTF6 1-1202)
chain: MANLLQRLRRRTGPKPDYIEDKLDEYIREEQVEETGGSNQDCPLGEIEKILDREWRPTASNNPNSSDNGTPTLVVVKQYLVKWKGLSYLHCSWVPEQEFEKAYKSHPHLKLKLRVTRFNAAMDVFIAENGAHEFIAIRPEWKTVDRIIACREGDDGEEYLVKYKELSYRNSYWESESDISDFQNEIQRFKDINSSSRRDKYVENERNREEFKQFDLTPEFLTGTLHTYQLEGLNFLRYSWSKKTNVILADEMGLGKTIQSIAFLASLFEENLSPHLVVAPLSTIRNWEREFATWAPHMNVVMYTGDSEARDVIWEHEFYFSEGRKSKFDVLLTTYEMVHPGISVLSPIKWTCMIIDEGHRLKNQKSKLYSSLSQFTSKHIVLLTGTPLQNNLNELFALMHFLDADKFGSLEKFQDINKEEQISRLHQMLAPHLLRRLKKDVLKDKVPPKKELILRVDMSSQQKEVYKAVITNNYQVLTKKRDAKISNVLMKLRQVCSHPYLLPDFEPRFEDANEAFTKLLEASGKLQLLDKMMVKLKEQGHRVLIYTQFQHTLYLLEDYFTFKNWNYERIDGKISGPERQVRIDRFNAENSNRFCFLLSTRAGGIGINLATADTVIIYDSDWNPHADLQAMARVHRLGQTNKVMIYRLIHKGTVEERMMEITKNKMLLEHLVVGKQHLCQDELDDIIKYGSKELFSEENDEAGRSGKIHYDDAAIEQLLDRNHVDAVEVSLDDEEETDFLKNFKVASFEYVDDENEAAALEEAQAIENNSSVRNADRTSHWKDLLKDKYEVQQAEELSALGKRKRNGKQVMYAEDDLDGLEEISDEEDEYCLDDLKVTSDEEEEADEPEAARQRKPRTVTRPYRKRARDNSEEIPLMEGEGRYLMVLGFNETERDIFLRTFKRYGAGNFDWKEFVNPLYMKTYDEINKYGILFLKHIAENPTDNSTNFKVITAMVYADGVPKEGISSDELLVSMTFMMLVKEKCQFLDNHPTAPVFSNYVISKYNLRNGAFSKEEHDRILIPAVSKHGYGRWVAIVEDEEIGFQEVACKDLNIPFPPDTKSARKRICDHVGKRVKKMEDAIKYEYAEKILAEQAKAETKGTSFVDAEKEMLKNDPITSKKNSATAVDNKQGRVEMAQSYDQSVNEKSGESFQTYLDIQPLNRMPRESFKPLEPINEEISTRLSVGTDHDVEMDAADNIIVLD
